At least one peptide structure holds a part that was inferred or is arguable (an end, a ring closure or a residue). Some compounds share one wording; it may come from a single statement. Where no end group is shown, it is not given here.
Experiments:
HUVECs [1] = assay: Angiogenic activity assay (cells seeded on Cultrex basement membrane extract); assay type: cell-based, Human; conditions: for angiogenesis on HUVECs: 10 ng of the peptides, same experiment as Example 2
aortic rings = assay: Rat aortic ring assay (ex vivo); assay type: cell-based, Sprague-Dawley rats; conditions: 10 ng/ml; incubated for 10 days; serum-free EBM
[2] = tested on: chick chorioallantoic membrane (CAM); assay: Chick chorioallantoic membrane (CAM) assay; assay type: in vivo, White Leghorn chicken; conditions: 100 ng on gelatin sponge; day 12
HUVECs [3] = assay: Angiogenic activity assay with CXCR1 and CXCR2 inhibition; assay type: cell-based, Human; conditions: 10 ng/ml peptide; preincubation 1 hour at 37°C with 2.5 µg/ml mAb; stressed HUVECs
HUVECs [4] = assay: Angiogenic activity assay under normal and stressed condition; assay type: cell-based, Human; conditions: 10 ng/ml
autophagy-based pathway = assay: Involvement of autophagy in the angiogenic activity (summary statement, no method described); assay type: cell-based
[5] = normal (10% FBS) culture conditions
[6] = stressed (serum starved; 0.5% FBS) conditions

Sequence	angiogenesis on HUVECs (HUVECs [1])	angiogenic activity (HUVECs [4]; [5])	angiogenic activity (HUVECs [4]; [6])	further results
ASRELERFLLE [ASRELERFLLE]	significantly promote angiogenesis			
ASRELERF [ASRELERF]	significantly promote angiogenesis			
AANELDRF [AANELDRF]	significantly promote angiogenesis			
AANELDRFLLE [AANELDRFLLE]	significantly promote angiogenesis			
KHIVWASRELERFAVNPGLL [peptide F3]		promote angiogenesis	potent angiogenic activity	angiogenic activity (HUVECs [1]; 10 ng/ml, HUVECs stressed (serum starved; 0.5% FBS) for 16 h): endowed with angiogenic activity; number of microvessels (aortic rings): 46 ± 8; mean number of vessels [2]: 30 ± 3; peptide-induced angiogenesis after neutralizing mAb to CXCR1 and CXCR2 (HUVECs [3]): did not impair; involvement of autophagy-based pathway in angiogenic activity (autophagy-based pathway): independent from autophagy
ASRELERFAVNPGLLE [F3S, ASRELERFAVNPGLLE]		potent angiogenic activity	potent angiogenic activity	

Source: patent EP3964225A1 (priority 2020, dated 2022)
